Laboratory results: PubChem BioAssay AID445 (National Center for Advancing Translational Sciences (NCATS), 2006)
The other results are listed elsewhere or left out. These are further read-outs of the screen, such as a control signal, another cell line or another target. No call is given for them. Most of these compounds were active or inconclusive in the main read-out, so they are no random draw. Potencies come from curve fits of mixed quality, noted in brackets.

Assay: IkB Signaling
Conditions: ABC-DLBCL IkBa-CBG/CBR dual luciferase ratio (green luciferase fused to IkBa over red control in OCI-Ly3 lymphoma cells), 4 h
In short: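 Curves were fitted separately to fusion (green), unfused (red) and ratio luminescence, then classed by r2, magnitude and activity. Cells: OCI-Ly3, 4 h compound plus doxycycline at 37C; 10 uM MG-132 defined full response.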

[1] = measured here: control luc red channel unless noted
[2] = measured here: IkB-luc green channel
[3] = measured here: control luc red channel

Structure (SMILES): COc1ccc(CCNC(=O)c2c(C)nn(-c3ccc(F)cc3)c2-n2cccc2)cc1OC
- AC50 [1]: 3.98 µM [falling, full curve, poor fit]

Structure (SMILES): O=C(O)CCC(=O)Nc1ccc(Br)cn1
- AC50 [1]: 39.8 µM [falling, single point]

Structure (SMILES): COc1ccc(C)cc1NC(=O)c1cnc2scc(C)n2c1=O
- AC50 [2]: 3.98 µM [rising, partial curve]
- AC50 [3]: 3.16 µM [rising, partial curve]

Structure (SMILES): CCc1ccc(NC(=O)Cn2c(=O)oc3cc(S(=O)(=O)N4CCCCCC4)ccc32)cc1
- AC50 [1]: 3.16 µM [falling, full curve]

Structure (SMILES): CC(C)Sc1ncc(Cl)c(C(=O)Nc2nnc(C(C)C)s2)n1
- AC50 [1]: 39.8 µM [falling, single point]

Structure (SMILES): COc1ccc(N2CSC3=C(C#N)C(c4cc(OC)ccc4OC)CC(=O)N3C2)c(OC)c1 (stereo unspecified)
- AC50 [1]: 3.16 µM [rising, full curve, poor fit] [measured here: IkB-luc green channel]

Structure (SMILES): CCOC(=O)c1c(C)oc2c1c1c(c3ccccc32)OCN(Cc2cccnc2)C1
- AC50 [1]: 25.1 µM [falling, single point]

Structure (SMILES): CN(C(=O)C(=O)Nc1ccc2nc3n(c(=O)c2c1)CCCCC3)c1cccc(C(F)(F)F)c1
- AC50 [1]: 12.6 µM [falling, partial curve]

Structure (SMILES): O=C1NC(c2ccccn2)Nc2sc3c(c21)CCC3 (stereo unspecified)
- AC50 [1]: 31.6 µM [rising, single point] [measured here: IkB-luc green channel]

Structure (SMILES): CCc1ccc(CNC(=O)c2cc(-c3ccc(Br)s3)nc3ccccc23)cc1
- AC50 [1]: 12.6 µM [falling, partial curve]

Structure (SMILES): O=C(Nc1ccccc1)c1cccc(S(=O)(=O)Nc2cccc(F)c2)c1
- AC50 [1]: 0.00631 µM [falling, full curve]

Structure (SMILES): COc1ccc(OC)c(-c2cc(C(=O)NC(C)c3ccccc3)no2)c1 (stereo unspecified)
- AC50 [1]: 0.316 µM [rising, full curve]

Structure (SMILES): COc1cccc(-c2ccc3c(N)c(C(=O)NCc4ccc(Cl)cc4)sc3n2)c1
- AC50 [1]: 12.6 µM [falling, partial curve]

Structure (SMILES): CCOC(=O)N1CCc2c(sc(NCc3ccc(OC)c(OC)c3OC)c2C(=O)Nc2ccc(OC)cc2OC)C1
- AC50 [1]: 15.8 µM [falling, partial curve]

Structure (SMILES): CCCCCOc1ccc(/C=C/C(=O)Nc2sc(C(C)=O)c(C)c2C(=O)OCC)cc1OC
- AC50 [1]: 25.1 µM [rising, partial curve, poor fit]

Structure (SMILES): CCc1ccc(-n2c(=O)c3sc4ccccc4c3n(Cc3cccc(F)c3)c2=O)cc1
- AC50 [1]: 3.16 µM [rising, partial curve]

Structure (SMILES): CCN1C(=O)/C(=C2/Sc3ccc(OC)cc3N2C)SC1=Nc1cccc(O)c1
- AC50 [2]: 12.6 µM [rising, partial curve]
- AC50 [3]: 7.94 µM [rising, partial curve]

Structure (SMILES): COc1ccccc1CNC(=O)c1ccc2nc(-c3ccccc3)c(-c3ccccc3)nc2c1
- AC50 [1]: 10 µM [falling, partial curve]

Structure (SMILES): CCn1cc(C(=O)NCc2ccc(C)cc2)c(=O)c2cc(S(=O)(=O)N3CCCCCC3)ccc21
- AC50 [1]: 39.8 µM [falling, single point]

Structure (SMILES): COc1ccc(NC(=O)C2CCN(c3nc(C)nc4c3CCC4)CC2)cc1
- AC50 [1]: 12.6 µM [falling, partial curve]

Structure (SMILES): O=C(CCc1nc2cccnc2n1Cc1cccs1)Nc1cccc(Cl)c1
- AC50 [1]: 39.8 µM [falling, single point]

Structure (SMILES): CCCCN(C)CCCNC(=O)CC1Oc2ccccc2NC1=O (stereo unspecified)
- AC50 [1]: 10 µM [falling, partial curve]

Structure (SMILES): COc1ccc(CNC(=O)c2ccc3c(c2)N(Cc2cccc(Cl)c2)C(=O)c2ccccc2S3)c(OC)c1
- AC50 [1]: 3.16 µM [falling, partial curve]

Structure (SMILES): COc1cc(OC)cc(C(=O)NCc2n[nH]c(=S)n2-c2ccccc2OC)c1
- AC50 [1]: 0.316 µM [falling, full curve]

Structure (SMILES): Cc1cccn2c(Nc3ccccc3)c(-c3ccc(N4CCOCC4)cc3)nc12
- AC50 [1]: 20 µM [falling, partial curve]

Structure (SMILES): CCOC(=O)N1CCN(C(=O)c2ccc3c(=O)n(Cc4ccccc4)c(=S)[nH]c3c2)CC1
- AC50 [1]: 31.6 µM [falling, partial curve]

Structure (SMILES): CCOc1ccc(NC(=O)CSc2nccn2-c2cccc(C)c2C)cc1
- AC50 [1]: 0.251 µM [falling, full curve, poor fit]

Structure (SMILES): O=S(=O)(NCC(c1ccco1)S(=O)(=O)c1cccs1)c1ccc(F)c(C(F)(F)F)c1 (stereo unspecified)
- AC50 [1]: 3.16 µM [falling, single point]

Structure (SMILES): Cc1cc(C(=O)CSc2nc3ccc(Cl)cc3[nH]2)c(C)n1C
- AC50 [1]: 31.6 µM [falling, single point]
